Our source for the binding values is PMC5698697.

Sequences of proteins named here, by UniProt entry; tags and fusion partners are left off. Residues count along the entry.
UniProt Q9QUN7, residues 25-784: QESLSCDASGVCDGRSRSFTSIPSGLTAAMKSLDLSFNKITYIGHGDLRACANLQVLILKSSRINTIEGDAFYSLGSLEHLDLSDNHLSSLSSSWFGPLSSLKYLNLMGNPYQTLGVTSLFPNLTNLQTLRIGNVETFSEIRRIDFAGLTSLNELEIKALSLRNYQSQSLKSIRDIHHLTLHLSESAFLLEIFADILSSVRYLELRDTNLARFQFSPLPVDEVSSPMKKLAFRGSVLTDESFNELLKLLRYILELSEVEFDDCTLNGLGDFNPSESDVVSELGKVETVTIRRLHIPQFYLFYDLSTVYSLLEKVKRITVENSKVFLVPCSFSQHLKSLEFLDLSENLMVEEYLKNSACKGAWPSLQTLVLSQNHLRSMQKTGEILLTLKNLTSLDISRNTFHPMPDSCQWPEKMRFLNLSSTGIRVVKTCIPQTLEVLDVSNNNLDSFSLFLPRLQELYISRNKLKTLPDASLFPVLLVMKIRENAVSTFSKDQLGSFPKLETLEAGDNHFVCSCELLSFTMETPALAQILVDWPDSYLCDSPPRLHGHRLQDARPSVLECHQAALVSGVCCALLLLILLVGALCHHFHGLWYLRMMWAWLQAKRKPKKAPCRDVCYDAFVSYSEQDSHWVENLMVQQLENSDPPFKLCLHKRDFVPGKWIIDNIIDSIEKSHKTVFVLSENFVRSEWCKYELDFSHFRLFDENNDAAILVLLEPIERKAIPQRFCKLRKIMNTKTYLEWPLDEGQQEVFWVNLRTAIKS

The target in assay [1] is T1, Toll-like receptor 12 (TLR12), endogenous in RAW 264.7 mouse macrophages (mouse (endogenous in RAW 264.7)) (UniProt Q6QNU9).
T1 sequence: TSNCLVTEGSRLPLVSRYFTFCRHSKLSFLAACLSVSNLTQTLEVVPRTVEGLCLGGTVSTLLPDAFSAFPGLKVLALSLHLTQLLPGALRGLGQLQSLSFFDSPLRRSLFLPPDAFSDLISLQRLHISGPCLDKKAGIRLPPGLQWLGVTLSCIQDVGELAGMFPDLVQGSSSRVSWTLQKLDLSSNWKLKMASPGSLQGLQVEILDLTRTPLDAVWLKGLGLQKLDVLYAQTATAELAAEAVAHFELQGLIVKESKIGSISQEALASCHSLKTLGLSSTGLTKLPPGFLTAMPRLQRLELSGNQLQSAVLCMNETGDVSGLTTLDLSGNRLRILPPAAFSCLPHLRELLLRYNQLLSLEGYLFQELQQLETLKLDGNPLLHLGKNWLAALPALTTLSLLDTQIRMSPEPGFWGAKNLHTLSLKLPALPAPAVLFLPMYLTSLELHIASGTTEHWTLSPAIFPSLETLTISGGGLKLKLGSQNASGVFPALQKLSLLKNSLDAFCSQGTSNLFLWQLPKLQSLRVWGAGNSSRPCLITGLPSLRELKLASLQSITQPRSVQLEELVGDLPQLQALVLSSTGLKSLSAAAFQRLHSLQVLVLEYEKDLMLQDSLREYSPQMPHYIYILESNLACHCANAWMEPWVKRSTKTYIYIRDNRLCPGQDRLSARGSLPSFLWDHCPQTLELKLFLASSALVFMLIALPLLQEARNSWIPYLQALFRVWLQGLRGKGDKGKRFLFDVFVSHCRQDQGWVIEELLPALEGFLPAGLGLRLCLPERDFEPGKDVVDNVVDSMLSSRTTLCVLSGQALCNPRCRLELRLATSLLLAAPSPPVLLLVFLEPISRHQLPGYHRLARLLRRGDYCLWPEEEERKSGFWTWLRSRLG
The experiment in a line: co-IP; RAW 264.7 cells treated with Rv2029c (10 μg/ml) for 8 h, lysed with RIPA buffer, precleared; immunoprecipitated with isotype IgG, anti-TLR2, anti-TLR12 or anti-Rv2029c overnight at 4°C; blots probed with anti-TLR2, anti-TLR12 or anti-His; only the binder purified.

Assay [2] deals with Toll-like receptor 2 (TLR2), endogenous in RAW 264.7 mouse macrophages (mouse (endogenous in RAW 264.7)) (UniProt Q9QUN7). The assay is described as above.

These are yes or no findings as the source states them, for the method shown. Binding seen in cells or lysates may run through a third protein. Some results given as binding are weak or reduced against the parent protein; the word gives no strength. Sequences can lack the tags named with a protein.

B1: Mycobacterium tuberculosis latency-associated antigen Rv2029c, recombinant, His-tagged (protein, UniProt P9WID3 1-339)
chain: MTEPAAWDEGKPRIITLTMNPALDITTSVDVVRPTEKMRCGAPRYDPGGGGINVARIVHVLGGCSTALFPAGGSTGSLLMALLGDAGVPFRVIPIAASTRESFTVNESRTAKQYRFVLPGPSLTVAEQEQCLDELRGAAASAAFVVASGSLPPGVAADYYQRVADICRRSSTPLILDTSGGGLQHISSGVFLLKASVRELRECVGSELLTEPEQLAAAHELIDRGRAEVVVVSLGSQGALLATRHASHRFSSIPMTAVSGVGAGDAMVAAITVGLSRGWSLIKSVRLGNAAGAAMLLTPGTAACNRDDVERFFELAAEPTEVGQDQYVWHPIVNPEASP
Take B1: the binding result is “no binding (tested: 10 μg/ml)” in assay [1] and “binds” in assay [2].
